No constants are given. Whether binding was seen depends on the method and setting. For some assays here: Binding seen in cells or lysates may run through a third protein. Some results given as binding are weak or reduced against the parent protein; the word gives no strength. Sequences can lack the tags named with a protein.

Sequences of proteins named here, by UniProt entry; tags and fusion partners are left off. Residues count along the entry.
UniProt P30405, 30-207: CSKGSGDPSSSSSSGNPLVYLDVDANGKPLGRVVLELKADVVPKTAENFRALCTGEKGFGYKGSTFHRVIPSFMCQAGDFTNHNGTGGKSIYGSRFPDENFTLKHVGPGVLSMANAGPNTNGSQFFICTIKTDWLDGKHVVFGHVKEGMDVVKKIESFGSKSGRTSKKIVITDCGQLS

This is an account of results in article doi:10.1101/2021.12.06.471412.

Test [1] has as its target T1, oligomycin sensitivity-conferring protein (OSCP) subunit of F-ATP synthase (human (endogenous in U87)) (UniProt P48047).
T1 sequence: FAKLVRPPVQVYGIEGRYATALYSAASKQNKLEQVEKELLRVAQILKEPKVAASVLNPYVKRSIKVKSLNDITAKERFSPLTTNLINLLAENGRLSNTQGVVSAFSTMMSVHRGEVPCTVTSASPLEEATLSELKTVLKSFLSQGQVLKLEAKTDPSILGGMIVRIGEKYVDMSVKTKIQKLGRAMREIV
The test is described as follows: co-IP.

Test [2] addresses T1, oligomycin sensitivity-conferring protein (OSCP) subunit of F-ATP synthase (human (endogenous in U87)). The experiment in a line: SEC.

With “peptidyl-prolyl cis-trans isomerase cyclophilin D (CyPD) (from UniProt P30405 30-207)”, the binding entry in test [1] and in test [2] was “binds” each time.
